# Whole data set: some 33,000 sequences, median “E-score (-0.5 to 0.5)” near -0.015, cut for the highest 2% near 0.3. This is one part of the list.
# Biological target: T1, Abf1 (UniProt P14164)
# T1 sequence: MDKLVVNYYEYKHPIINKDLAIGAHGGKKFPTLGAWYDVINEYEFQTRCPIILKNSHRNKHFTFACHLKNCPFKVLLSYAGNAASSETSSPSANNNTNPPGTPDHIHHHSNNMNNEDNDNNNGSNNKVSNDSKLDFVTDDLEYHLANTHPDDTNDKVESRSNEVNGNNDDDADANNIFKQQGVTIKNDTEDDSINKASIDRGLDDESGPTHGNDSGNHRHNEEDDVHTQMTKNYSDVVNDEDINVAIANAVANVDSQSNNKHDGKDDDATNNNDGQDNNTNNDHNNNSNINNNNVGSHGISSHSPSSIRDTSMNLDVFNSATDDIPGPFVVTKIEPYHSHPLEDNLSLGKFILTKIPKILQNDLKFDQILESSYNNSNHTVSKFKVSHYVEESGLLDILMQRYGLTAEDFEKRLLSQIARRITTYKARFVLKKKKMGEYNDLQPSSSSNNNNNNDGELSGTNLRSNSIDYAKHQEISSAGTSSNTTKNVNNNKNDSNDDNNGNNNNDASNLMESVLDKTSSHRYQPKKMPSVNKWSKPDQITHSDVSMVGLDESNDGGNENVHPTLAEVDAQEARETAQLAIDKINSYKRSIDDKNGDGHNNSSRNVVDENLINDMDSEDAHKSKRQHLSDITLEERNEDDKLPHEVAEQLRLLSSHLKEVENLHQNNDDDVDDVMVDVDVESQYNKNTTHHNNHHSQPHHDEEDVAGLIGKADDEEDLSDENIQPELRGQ
# Assay: PBM E-score (8-mer binding enrichment) (E-score (-0.5 to 0.5)); higher = stronger / more preferred TF binding
# Details: protein concentration: 200 nM; construct: GST-full length
# How it was run: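 Full-length yeast transcription factors or their DNA-binding domains, GST-tagged and expressed with PURExpress, were applied at about 100-200 nM to universal all-10-mer Agilent arrays. These arrays had been made double-stranded by primer extension on fresh or once-stripped slides. Detection used fluorescent anti-GST, normalisation used masliner, and E-scores for ungapped eight-base words pooled with reverse complements came from the Universal PBM Analysis Suite.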
row,Sequence,PBM E-score
1,CGCTCGAG,0.0681
2,CATGGTGA,0.187
3,GCGTCCCC,-0.291
4,CTCCACGC,0.00872
5,CCCTAGTA,-0.0961
6,ACCGACCT,-0.0411
7,AAAACTAC,-0.0222
8,AGCTGGAC,-0.0422
9,CTACCTAA,-0.0721
10,GACTCTGC,0.0155
11,GGAATGTA,0.163
12,CTTTGGCA,-0.114
13,GGGCCAAC,-0.177
14,AAAAGGAA,0.0172
15,AACAGGAT,-0.0163
16,ACCGGACC,-0.113
17,CCAATGTC,0.0633
18,CATGTGAA,-0.147
19,CATGGCTC,-0.265
20,GGTCAAAA,0.144
21,CCCAGGGC,-0.23
22,GAGGGATC,-0.219
23,AGTCGGCG,-0.196
24,GAAGTTTA,0.143
25,ACTCGTGC,-0.073

row,Sequence,PBM E-score
1,CCAACGCA,-0.0492
2,TAAGCAGA,-0.0468
3,GACGACTC,0.14
4,ACCTTAGT,-0.139
5,CCCAACGA,0.167
6,AGACCTCA,0.0225
7,AGGACTCA,-0.0358
8,AACCTGAC,-0.218
9,AGCTGAAA,0.108
10,AGGTACTC,0.00309
11,ACCTGCGG,-0.107
12,CACGATCA,0.272
13,CGCATGCC,-0.053
14,AATGTCCT,-0.0347
15,ATGGCTCA,-0.186
16,CAGTGGCG,-0.173
17,AGATGCTC,0.0161
18,GTAGGCCA,0.0735
19,CGTCCCAG,-0.0823
20,ACGTGTTG,0.143
21,GAAGTTGC,-0.00688
22,ACCGATGG,-0.233
23,AGCTATAC,-0.152
24,CGACATAA,0.22
25,CTCGCAGC,-0.0599

row,Sequence,PBM E-score
1,GCTATTTA,0.0236
2,GAAGCATA,0.0655
3,ATGACGGA,0.171
4,AATCATCA,0.317
5,ACAGCAGG,-0.00451
6,CATGGAAA,0.0198
7,GAGTGGGA,0.0759
8,CCACGCGG,-0.0923
9,CCCATTAA,-0.138
10,AAAAGACA,0.0467
11,ACGCACTG,-0.0673
12,ACCGAGAA,0.0615
13,CTCCTAAC,-0.0523
14,CTGTTTAC,0.0856
15,ACTCTGCC,-0.0526
16,CCAGTTAA,0.0671
17,AATTCATA,0.174
18,CCATAGAC,-0.206
19,GTTATCCA,0.00926
20,AACGTAGG,-0.17
21,GACCGTCC,-0.0137
22,AACACGTA,-0.00217
23,GAGCGCTA,-0.037
24,GCCAGGAA,-0.102
25,AGTGACAT,0.43

row,Sequence,PBM E-score
1,CAAAGCTC,-0.259
2,CCAAACAG,0.0638
3,GAGTAGAC,0.0485
4,GCCTATAC,-0.203
5,AGATTCCT,-0.125
6,ACGAACCA,0.144
7,CCATTTGC,-0.0158
8,GCATCTGA,-0.216
9,AAACGATT,0.292
10,CAGCGAGG,-0.204
11,CAAGTAAG,-0.0165
12,TGGAACCA,-0.0857
13,CGGCAGAA,-0.111
14,GGTCACGA,0.27
15,GCAGTGCC,-0.209
16,ATATGTCA,0.289
17,CAAGGTGA,0.132
18,ATAACCGA,0.0277
19,CGCCGAAC,0.0673
20,GTTTGCGA,0.0411
21,ATGCGTAC,0.119
22,TCACAAGA,0.0608
23,CGCAGCCA,-0.157
24,ATAGCTCG,-0.0227
25,CTACCAGA,-0.193

row,Sequence,PBM E-score
1,ACGACACA,0.275
2,ATAGCCAT,0.0439
3,AGTTGGGA,-0.218
4,GAGTGAGA,0.0215
5,ATTCGACC,-0.0563
6,CGCGTTCC,-0.231
7,TGTAATAA,0.203
8,CTGATGAA,0.0318
9,AACCTGTC,-0.175
10,TACCGCCA,0.0184
11,CTCAAAAG,-0.0587
12,CGTATGCC,-0.0284
13,GACATAGA,0.0851
14,GTATCCAC,0.0115
15,TTAGCAAA,-0.175
16,AAAGTGCG,-0.105
17,GCGCCAGA,-0.231
18,TCCATTAA,0.0318
19,CAATTGGC,0.00835
20,CCGGAGCA,-0.291
21,ACCGAACA,-0.0253
22,GCTTGTAC,0.0867
23,ATTCATAG,0.126
24,AGAGTTAG,-0.217
25,CTGTATAA,-0.0403

row,Sequence,PBM E-score
1,AGCTTGCG,-0.123
2,AATGTAGA,-0.0277
3,AGCTCTGC,-0.361
4,TGTACAAA,0.0674
5,AAATTAAT,0.0897
6,GCCTTAGA,-0.0193
7,CCTACACC,-0.256
8,CATATGGA,0.127
9,CGCCTATA,-0.0896
10,GAGCCGAC,-0.241
11,TGACGCCA,-0.136
12,CTGAGAAG,-0.161
13,ATTGCCCA,-0.0404
14,AGTCATCG,0.267
15,TCGTGTAA,0.343
16,ACTAACCC,-0.153
17,GACGGAGA,-0.0216
18,CTTACTAA,0.172
19,GATGAGAC,0.104
20,CGGGTCAG,-0.173
21,CGCGAAAG,0.0686
22,CTGCCTTC,-0.269
23,GCTCACCC,-0.155
24,AACATCAT,0.309
25,AAGGCCAA,-0.0935

row,Sequence,PBM E-score
1,AAGCCCAT,-0.0799
2,AGACCTAT,-0.0191
3,CCTATTGA,-0.0303
4,AACAAAAG,0.168
5,GAGCTAGA,-0.11
6,CATCCAGC,-0.0905
7,CCATGGCC,-0.271
8,AGGCGTCC,-0.259
9,GGCGGAAC,-0.0975
10,CTCTGAGA,-0.0384
11,GACTCTTA,-0.0241
12,CCCTGAAC,0.17
13,TACGATCA,0.208
14,GCGCAAGA,-0.0185
15,ACAATCAT,0.0833
16,AAGCGAAG,0.133
17,ATGTCTTG,0.0293
18,AGTGAATG,0.0814
19,ATAGCGCA,-0.0427
20,CGTGTATA,0.153
21,CCTAAGCC,-0.317
22,CAAACCAG,-0.156
23,CCCGAACC,-0.21
24,CCTTATAC,0.172
25,CAGTCACG,0.0751

row,Sequence,PBM E-score
1,CCTGGTAG,-0.226
2,GGTAACAC,-0.0308
3,CCGGTGCG,-0.00687
4,CAGTGGTC,-0.0168
5,GGTCCTGA,-0.0764
6,CACACCGG,-0.0728
7,CACACGCA,-0.0899
8,CTGCTGGC,-0.25
9,AAATATTT,0.174
10,CCACTCTA,-0.03
11,AATTTTCA,0.11
12,GACACTCA,-0.0679
13,ACCGTCCG,-0.00107
14,ACAGCTTG,-0.117
15,ACTCCACT,-0.0183
16,CTGCCAGA,-0.229
17,ATATACCG,0.268
18,CGCAGCTA,-0.0788
19,AGTACACC,-0.197
20,CTTTCACC,0.0336
21,TAATGCGA,0.186
22,ATGTAATA,0.121
23,TTGAGAAA,0.0703
24,GCGGACCA,0.119
25,CTGTGGAA,-0.0344

row,Sequence,PBM E-score
1,CAAGATCG,0.117
2,CTGTAAGC,-0.00055
3,GGTGCATA,-0.0553
4,GCTAATCC,0.00615
5,CACTGGGC,-0.0686
6,AACGTCGC,0.146
7,AAGCCGGA,-0.0839
8,CTTGAACA,0.0646
9,CAAGAGCC,-0.132
10,AATCCGGT,0.0045
11,CGATGGCG,-0.0766
12,CAGGGGAC,-0.279
13,ACCTCCCG,-0.12
14,TATCTGCA,0.0471
15,CTTCACCC,0.0775
16,AAATTCTT,-0.0436
17,TACAAGGA,-0.0801
18,GGCTCCTA,-0.247
19,CAGCCCGC,-0.361

# From the supplement of paper PMC3334620
